Results are given in words; binding and its absence hold for the method and conditions named. Some binding calls cover weakened binding; strength is not graded here.
Target: GAL4-DBD-α1cyt (α1-integrin cytoplasmic domain fused to GAL4 DNA-BD in the pGBKT7 vector) (UniProt P04386)
Experiment: yeast two-hybrid screen

Protein sequences, listed by entry. Tags and fused reporters are not part of them. Lines headed by an entry give the natural chain unless they say otherwise; changes in a name come on top.
UniProt P04386: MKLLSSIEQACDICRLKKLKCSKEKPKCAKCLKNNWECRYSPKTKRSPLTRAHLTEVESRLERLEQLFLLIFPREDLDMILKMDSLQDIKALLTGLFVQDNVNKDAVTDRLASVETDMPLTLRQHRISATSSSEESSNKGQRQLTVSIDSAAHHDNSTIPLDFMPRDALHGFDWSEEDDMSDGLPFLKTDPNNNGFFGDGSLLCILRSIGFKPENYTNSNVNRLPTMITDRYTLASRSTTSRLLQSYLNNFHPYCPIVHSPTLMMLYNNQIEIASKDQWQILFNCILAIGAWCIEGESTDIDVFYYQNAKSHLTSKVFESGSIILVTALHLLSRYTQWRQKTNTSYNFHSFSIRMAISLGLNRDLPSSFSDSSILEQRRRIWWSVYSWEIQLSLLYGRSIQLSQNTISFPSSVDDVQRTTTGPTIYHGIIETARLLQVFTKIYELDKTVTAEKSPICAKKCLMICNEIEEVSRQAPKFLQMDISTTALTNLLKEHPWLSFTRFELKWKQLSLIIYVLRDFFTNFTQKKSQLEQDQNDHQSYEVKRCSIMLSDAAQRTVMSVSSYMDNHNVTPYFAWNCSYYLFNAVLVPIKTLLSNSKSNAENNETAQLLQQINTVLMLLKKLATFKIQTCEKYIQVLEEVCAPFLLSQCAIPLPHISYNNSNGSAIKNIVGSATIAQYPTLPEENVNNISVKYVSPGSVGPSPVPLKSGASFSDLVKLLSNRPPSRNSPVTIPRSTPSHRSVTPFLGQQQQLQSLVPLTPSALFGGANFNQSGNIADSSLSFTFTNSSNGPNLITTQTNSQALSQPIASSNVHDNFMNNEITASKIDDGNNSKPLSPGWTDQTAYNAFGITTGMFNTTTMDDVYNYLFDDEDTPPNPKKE

B1: T-cell protein tyrosine phosphatase clone from mouse 17-day embryo Matchmaker cDNA library (45 kDa form of TCPTP) (enzyme, UniProt Q06180-2 1-382, looked up)
chain: MSATIEREFEELDAQCRWQPLYLEIRNESHDYPHRVAKFPENRNRNRYRDVSPYDHSRVKLQSTENDYINASLVDIEEAQRSYILTQGPLPNTCCHFWLMVWQQKTKAVVMLNRTVEKESVKCAQYWPTDDREMVFKETGFSVKLLSEDVKSYYTVHLLQLENINTGETRTISHFHYTTWPDFGVPESPASFLNFLFKVRESGCLTPDHGPAVIHCSAGIGRSGTFSLVDTCLVLMEKGEDVNVKQLLLNMRKYRMGLIQTPDQLRFSYMAIIEGAKYTKGDSNIQKRWKELSKEDLSPICDHSQNRVMVEKYNGKRIGSEDEKLTGLPSKVQDTVEESSESILRKRIREDRKATTAQKVQQMKQRLNETERKRKRPRLTDT
B1 was tested. Which binding did it give?
The binding was “binds”.
